Our source for the binding values is article PMC7795355.

The target of experiment [1] is T1, OsNbs1 (Nijmegen breakage syndrome 1 of rice), BiFC fusion (Oryza sativa (rice)) (UniProt Q7XD82).
T1 sequence: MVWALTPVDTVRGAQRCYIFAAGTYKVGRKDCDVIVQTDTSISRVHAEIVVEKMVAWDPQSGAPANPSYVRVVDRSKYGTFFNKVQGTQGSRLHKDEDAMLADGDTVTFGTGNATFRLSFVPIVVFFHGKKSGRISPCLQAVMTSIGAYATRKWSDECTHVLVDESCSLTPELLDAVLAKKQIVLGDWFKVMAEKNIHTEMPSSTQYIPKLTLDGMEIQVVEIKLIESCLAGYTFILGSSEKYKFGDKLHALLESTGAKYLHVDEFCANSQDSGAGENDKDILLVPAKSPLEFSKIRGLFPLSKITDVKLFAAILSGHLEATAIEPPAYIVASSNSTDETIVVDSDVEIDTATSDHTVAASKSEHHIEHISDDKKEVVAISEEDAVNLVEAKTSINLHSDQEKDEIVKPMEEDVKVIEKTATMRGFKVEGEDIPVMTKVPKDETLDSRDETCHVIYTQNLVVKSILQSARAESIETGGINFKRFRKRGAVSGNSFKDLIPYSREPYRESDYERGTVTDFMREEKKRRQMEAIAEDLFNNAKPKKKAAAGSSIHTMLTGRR
Kind of experiment: split reporter; BiFC with split YFP (YN and YC fusions) transiently co-expressed in tobacco (Nicotiana benthamiana) leaf epidermis cells; fluorescence observed about 36 h later.

For experiment [2], the target named is T2, OsMre11 (Meiotic recombination 11 of rice), BiFC fusion (Oryza sativa (rice)) (UniProt Q7XQR9).
T2 sequence: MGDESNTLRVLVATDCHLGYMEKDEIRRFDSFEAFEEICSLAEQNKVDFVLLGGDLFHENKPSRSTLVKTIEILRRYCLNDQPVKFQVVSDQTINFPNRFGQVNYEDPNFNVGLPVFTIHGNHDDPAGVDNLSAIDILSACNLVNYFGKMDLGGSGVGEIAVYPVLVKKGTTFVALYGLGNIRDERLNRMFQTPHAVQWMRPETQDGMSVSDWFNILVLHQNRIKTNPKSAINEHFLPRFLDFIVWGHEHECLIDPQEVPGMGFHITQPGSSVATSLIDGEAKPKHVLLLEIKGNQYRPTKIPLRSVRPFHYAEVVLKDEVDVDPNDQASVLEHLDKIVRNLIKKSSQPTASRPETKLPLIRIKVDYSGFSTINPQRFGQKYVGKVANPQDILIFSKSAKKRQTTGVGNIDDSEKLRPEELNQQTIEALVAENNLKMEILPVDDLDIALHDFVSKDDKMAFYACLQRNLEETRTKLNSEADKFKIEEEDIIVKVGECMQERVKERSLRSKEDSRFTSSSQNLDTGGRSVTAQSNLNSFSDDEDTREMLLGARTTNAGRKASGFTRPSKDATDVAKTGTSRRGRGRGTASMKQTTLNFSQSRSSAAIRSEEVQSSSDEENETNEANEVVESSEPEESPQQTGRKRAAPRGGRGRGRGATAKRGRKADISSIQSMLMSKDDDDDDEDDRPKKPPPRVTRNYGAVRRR
Described as above.

In experiment [3] the target is OsRad50 (radiation sensitive 50 of rice), BiFC fusion (Oryza sativa (rice)). Described as above.
Experiment [4] concerns the target OsRad50-3×Flag (Oryza sativa (rice)). The experiment is described as follows: co-IP; two of the fusion proteins transiently co-expressed in tobacco leaf cells; immunoprecipitated with anti-Flag or anti-Myc antibody, blotted with anti-GFP, anti-Flag, anti-Myc; IgG as negative control.

These are yes or no findings as the source states them, for the method shown. In cells and extracts the contact can be indirect. For some of these results: Binding can be weak; no strength is given. Sequences can lack the tags named with a protein.

For “OsRad50 (radiation sensitive 50 of rice), BiFC fusion (Oryza sativa (rice))”, the binding result in experiment [1] was “no binding”; in experiment [2], “binds”.

B1: OsMre11 (Meiotic recombination 11 of rice), BiFC fusion (protein, UniProt Q7XQR9 1-705)
chain: MGDESNTLRVLVATDCHLGYMEKDEIRRFDSFEAFEEICSLAEQNKVDFVLLGGDLFHENKPSRSTLVKTIEILRRYCLNDQPVKFQVVSDQTINFPNRFGQVNYEDPNFNVGLPVFTIHGNHDDPAGVDNLSAIDILSACNLVNYFGKMDLGGSGVGEIAVYPVLVKKGTTFVALYGLGNIRDERLNRMFQTPHAVQWMRPETQDGMSVSDWFNILVLHQNRIKTNPKSAINEHFLPRFLDFIVWGHEHECLIDPQEVPGMGFHITQPGSSVATSLIDGEAKPKHVLLLEIKGNQYRPTKIPLRSVRPFHYAEVVLKDEVDVDPNDQASVLEHLDKIVRNLIKKSSQPTASRPETKLPLIRIKVDYSGFSTINPQRFGQKYVGKVANPQDILIFSKSAKKRQTTGVGNIDDSEKLRPEELNQQTIEALVAENNLKMEILPVDDLDIALHDFVSKDDKMAFYACLQRNLEETRTKLNSEADKFKIEEEDIIVKVGECMQERVKERSLRSKEDSRFTSSSQNLDTGGRSVTAQSNLNSFSDDEDTREMLLGARTTNAGRKASGFTRPSKDATDVAKTGTSRRGRGRGTASMKQTTLNFSQSRSSAAIRSEEVQSSSDEENETNEANEVVESSEPEESPQQTGRKRAAPRGGRGRGRGATAKRGRKADISSIQSMLMSKDDDDDDEDDRPKKPPPRVTRNYGAVRRR
Take B1: the binding entry in experiment [3] is “binds”.

B2: OsMre11-GFP (protein, UniProt Q7XQR9 1-705)
chain: MGDESNTLRVLVATDCHLGYMEKDEIRRFDSFEAFEEICSLAEQNKVDFVLLGGDLFHENKPSRSTLVKTIEILRRYCLNDQPVKFQVVSDQTINFPNRFGQVNYEDPNFNVGLPVFTIHGNHDDPAGVDNLSAIDILSACNLVNYFGKMDLGGSGVGEIAVYPVLVKKGTTFVALYGLGNIRDERLNRMFQTPHAVQWMRPETQDGMSVSDWFNILVLHQNRIKTNPKSAINEHFLPRFLDFIVWGHEHECLIDPQEVPGMGFHITQPGSSVATSLIDGEAKPKHVLLLEIKGNQYRPTKIPLRSVRPFHYAEVVLKDEVDVDPNDQASVLEHLDKIVRNLIKKSSQPTASRPETKLPLIRIKVDYSGFSTINPQRFGQKYVGKVANPQDILIFSKSAKKRQTTGVGNIDDSEKLRPEELNQQTIEALVAENNLKMEILPVDDLDIALHDFVSKDDKMAFYACLQRNLEETRTKLNSEADKFKIEEEDIIVKVGECMQERVKERSLRSKEDSRFTSSSQNLDTGGRSVTAQSNLNSFSDDEDTREMLLGARTTNAGRKASGFTRPSKDATDVAKTGTSRRGRGRGTASMKQTTLNFSQSRSSAAIRSEEVQSSSDEENETNEANEVVESSEPEESPQQTGRKRAAPRGGRGRGRGATAKRGRKADISSIQSMLMSKDDDDDDEDDRPKKPPPRVTRNYGAVRRR
Turning to B2, the binding entry in experiment [4] is on record as “binds”.
